Laboratory results as given in US20250361214A1, “TRIAZINE LIPIDS, LIPID SYNTHESIS, AND METHODS FOR INHIBITING CANONICAL NFKB TRANSCRIPTIONAL ACTIVITY” (University of Kentucky Research Foundation, priority 2022, published 2025).
Some entries share one result that the patent states for a list of compounds.

Experiment: Size and charge determination of nanoparticles (Zetasizer Nano ZS), Example 1
Assay type: physicochemical
Settings: Table 1
From the text: Size and Charge Determination.

Compound: CCCCCCCCCCCCN(CCCCCCCCCCCC)c1nc(NCCCN)nc(NCCC(=O)O)n1 [Lipid 11]
- nanoparticle diameter: > 300 nm

Compound: CCCCCCCCCCCCCCCCCCN(CCCCCCCCCCCCCCCCCC)c1nc(NCCCN)nc(NCCC(=O)O)n1 [Lipid 12]
- nanoparticle diameter: > 300 nm
